These are yes or no findings as the source states them, for the method shown. A result given as binding can be weak or reduced; the word gives no strength.

This note sets out measurements from article PMC5027585, “TSPO ligands stimulate ZnPPIX transport and ROS accumulation leading to the inhibition of P. falciparum growth in human blood” (Scientific Reports, 2016).

The assay addresses Voltage Dependent Anion Channel (VDAC) (human (endogenous in red blood cells)). Nature of the assay: native gel or EMSA; two-dimensional native (3-12% gradient) then 12% SDS-PAGE of ghosts solubilised in 1% dodecylmaltoside, immunoblot. A general note: In EMSA bound probe runs differently from free probe, usually more slowly.

B1: TranSlocator PrOtein 2 (TSPO2) (natural protein, human (endogenous in red blood cells), UniProt Q5TGU0 1-170, looked up)
chain: MRLQGAIFVLLPHLGPILVWLFTRDHMSGWCEGPRMLSWCPFYKVLLLVQTAIYSVVGYASYLVWKDLGGGLGWPLALPLGLYAVQLTISWTVLVLFFTVHNPGLALLHLLLLYGLVVSTALIWHPINKLAALLLLPYLAWLTVTSALTYHLWRDSLCPVHQPQPTEKSD
notes: TSPO2, human, second TSPO isoform, endogenous in mature red blood cells; detected with a rabbit antibody against the 13 C-terminal residues of hTSPO2; also called hTSPO2; source: endogenous, human red blood cell membranes (ghosts) or Triton X-100 lysate of healthy and P. falciparum-infected RBCs
Consider B1, for which the binding entry was “binds”.
